Measured values from patent publication US20040023994A1 (priority 2002, published 2004).
For at least one compound, name, drawing or mass did not settle the structure.

Test system: Heterozygous nude CD-1 male mice
Experiment: Bone marrow myeloid to erythroid (M:E) ratio in treated mice
Settings: i.p., 21.25 μmol/kg, one cycle

## CC(=O)C=CSc1nc(N)nc2nc[nH]c12 [trans-AVTG, 6-(2-acetylvinylthio) guanine]
  M:E ratio (mean and range): 6.6:1 (3.0:1-10.1:1)
